The list does not hold the whole screen: it is rich in T/C values a quarter to a half above the control, in often repeated tests (any T/C) and in doses without a T/C. Other doses and runs of a compound stand elsewhere. T/C is the treated group as % of the vehicle group. Some entries give survivors of the animals treated and no T/C: the source holds a T/C of zero for them, seemingly a mark for toxic or unscored doses. Some doses without a T/C left all or most animals alive at the check, yet need not have been tolerated: the source hardly ever lists a survival T/C far under the control, and the zero likely stands for such cases as well. Counts of survivors are from the toxicity check (mostly the fifth day) where no day follows; animals may have died later. Schedules are NCI's codes, read here as Q, the interval in days (D) or hours (H), X, the number of doses. Some schedules carry Z or #; the key to these is not given. For survival time, this PubChem deposit counts one and a half times the control or more as active, and values a quarter to a half above the control carry no call in these data; other NCI protocols may use other cut-offs. Some T/C values are followed by the survivors on the day toxicity was checked, most often the fifth; where none is given, no animal had died by that day. Some entries were tested several times; the results are listed from low to high.
Test system: mice, LPC-1 plasma cell tumor ip, median survival T/C
Assay: NCI In Vivo Anticancer Drug Screen. Data for tumor model Lieberman Plasma Cell No. 1 (LPC-1) (intraperitoneal) in unknown mice
Details: T/C endpoint: median survival time, higher T/C = longer survival
Experimental: The antitumor activity of compounds was measured in mice bearing transplantable tumors. Survival or tumor size were measured and the results are expressed as the measurement made in the treated group (T) divided by the measurement made in the vehicle treated control group (C). The tumor model used in this assay is Lieberman Plasma Cell No. 1 (LPC-1) (intraperitoneal) in unknown mice

## COc1cc2c(c3c1c(=O)c1ccccc1n3C)C=CC(C)(C)O2
dose: 12.0 mg/kg/injection, schedule: Q03HX008 (sc), vehicle: other
  T/C: 133 % of control [9 of 10 alive]
dose: 12.0 mg/kg/injection, schedule: Q03HX024 (sc), vehicle: other
  T/C: 128 % of control [7 of 10 alive]
dose: 14.0 mg/kg/injection, schedule: Q01DX028 (sc), vehicle: other
  T/C: 135 % of control
dose: 18.0 mg/kg/injection, schedule: Q03HX024 (sc), vehicle: other
  T/C: 138 % of control [8 of 10 alive]
dose: 18.75 mg/kg/injection, schedule: Q03HX008 (oral), vehicle: steroid suspending solution
  T/C: 125 % of control [7 of 8 alive]
dose: 18.75 mg/kg/injection, schedule: Q03HX024 (ip), vehicle: steroid suspending solution
  T/C: 128 % of control
dose: 27.0 mg/kg/injection, schedule: Q01DX021 (sc), vehicle: other
  T/C: 135 % of control [8 of 10 alive]
dose: 30.0 mg/kg/injection, schedule: Q01DX020 (oral), vehicle: saline
  survivor count: 4 of 8
dose: 37.5 mg/kg/injection, schedule: Q03HX008 (ip), vehicle: steroid suspending solution
  survivor count: 2 of 8
dose: 37.5 mg/kg/injection, schedule: Q03HX024 (ip), vehicle: steroid suspending solution
  survivor count: 1 of 8
dose: 39.0 mg/kg/injection, schedule: Q01DX028 (sc), vehicle: other
  T/C: 129 % of control
dose: 40.0 mg/kg/injection, schedule: Q01DX005 (sc), vehicle: other
  T/C: 135 % of control [9 of 10 alive]
dose: 40.0 mg/kg/injection, schedule: Q04DX003 (sc), vehicle: other
  T/C: 126 % of control [8 of 10 alive]
dose: 44.0 mg/kg/injection, schedule: Q01DX020 (oral), vehicle: saline
  survivor count: 4 of 8
dose: 49.0 mg/kg/injection, schedule: Q03HX024 (sc), vehicle: steroid suspending solution
  survivor count: 5 of 8
dose: 60.0 mg/kg/injection, schedule: Q01DX005 (sc), vehicle: other
  T/C: 128 % of control
dose: 65.0 mg/kg/injection, schedule: Q01DX028 (sc), vehicle: other
  T/C: 140 % of control
dose: 66.0 mg/kg/injection, schedule: Q01DX020 (oral), vehicle: saline
  survivor count: 5 of 8
dose: 70.0 mg/kg/injection, schedule: Q03HX008 (sc), vehicle: steroid suspending solution
  survivor count: 5 of 8
dose: 75.0 mg/kg/injection, schedule: Q01DX001 (oral), vehicle: steroid suspending solution
  T/C: 137 % of control
dose: 75.0 mg/kg/injection, schedule: Q03HX008 (ip), vehicle: steroid suspending solution
  survivor count: 4 of 8
dose: 75.0 mg/kg/injection, schedule: Q03HX024 (ip), vehicle: steroid suspending solution
  survivor count: 3 of 8
dose: 75.0 mg/kg/injection, schedule: Q## X008 (oral), vehicle: other
  T/C: 132 % of control [7 of 8 alive]
dose: 90.0 mg/kg/injection, schedule: Q01DX001 (sc), vehicle: other
  T/C: 133 % of control
dose: 90.0 mg/kg/injection, schedule: Q01DX021 (sc), vehicle: other
  T/C: 147 % of control [9 of 10 alive]
dose: 90.0 mg/kg/injection, schedule: Q04DX003 (sc), vehicle: other
  T/C: 138 % of control
dose: 95.0 mg/kg/injection, schedule: Q03HX024 (sc), vehicle: other
  T/C: 143 [7 of 10 alive] and 143 % of control [8 of 10 alive]
dose: 100.0 mg/kg/injection, schedule: Q03HX008 (sc), vehicle: steroid suspending solution
  T/C: 146 % of control [7 of 8 alive]
dose: 100.0 mg/kg/injection, schedule: Q03HX024 (sc), vehicle: steroid suspending solution
  T/C: 137 % of control
dose: 108.0 mg/kg/injection, schedule: Q01DX028 (sc), vehicle: other
  survivor count: 5 of 8
dose: 142.0 mg/kg/injection, schedule: Q03HX024 (sc), vehicle: other
  T/C: 131 % of control [9 of 10 alive]
dose: 150.0 mg/kg/injection, schedule: Q01DX001 (oral), vehicle: saline
  survivor count: 3 of 8
dose: 150.0 mg/kg/injection, schedule: Q03HX008 (ip), vehicle: steroid suspending solution
  survivor count: 4 of 8
dose: 150.0 mg/kg/injection, schedule: Q03HX008 (oral), vehicle: steroid suspending solution
  T/C: 131 % of control [6 of 8 alive]
dose: 150.0 mg/kg/injection, schedule: Q03HX024 (ip), vehicle: steroid suspending solution
  survivor count: 4 of 8
dose: 150.0 mg/kg/injection, schedule: Q## X008 (oral), vehicle: other
  T/C: 138 % of control [7 of 8 alive]
dose: 292.0 mg/kg/injection, schedule: Q01DX001 (sc), vehicle: steroid suspending solution
  T/C: 125 % of control
dose: 300.0 mg/kg/injection, schedule: Q01DX001 (ip), vehicle: steroid suspending solution
  T/C: 128 % of control [7 of 8 alive]
dose: 300.0 mg/kg/injection, schedule: Q01DX001 (oral), vehicle: saline
  survivor count: 1 of 8
dose: 300.0 mg/kg/injection, schedule: Q01DX001 (oral), vehicle: steroid suspending solution
  T/C: 128 % of control
dose: 320.0 mg/kg/injection, schedule: Q03HX024 (sc), vehicle: other
  T/C: 128 % of control [7 of 10 alive]
dose: 417.0 mg/kg/injection, schedule: Q01DX001 (sc), vehicle: steroid suspending solution
  T/C: 128 % of control
dose: 440.0 mg/kg/injection, schedule: Q01DX001 (oral), vehicle: saline
  survivor count: 1 of 8
dose: 528.0 mg/kg/injection, schedule: Q## X024 (sc), vehicle: steroid suspending solution
  T/C: 132 % of control
dose: 596.0 mg/kg/injection, schedule: Q01DX001 (sc), vehicle: steroid suspending solution
  T/C: 131 % of control
dose: 600.0 mg/kg/injection, schedule: Q01DX001 (oral), vehicle: steroid suspending solution
  T/C: 134 % of control
dose: 600.0 mg/kg/injection, schedule: Q## X008 (oral), vehicle: other
  survivor count: 3 of 8
dose: 600.0 mg/kg/injection, schedule: Q## X008 (oral), vehicle: steroid suspending solution
  survivor count: 5 of 8
dose: 660.0 mg/kg/injection, schedule: Q01DX001 (oral), vehicle: saline
  survivor count: 1 of 8
dose: 800.0 mg/kg/injection, schedule: Q## X008 (sc), vehicle: steroid suspending solution
  T/C: 128 % of control
dose: 1136.0 mg/kg/injection, schedule: Q## X024 (sc), vehicle: steroid suspending solution
  T/C: 146 % of control
dose: 1200.0 mg/kg/injection, schedule: Q## X008 (oral), vehicle: steroid suspending solution
  survivor count: 3 of 8
dose: 1200.0 mg/kg/injection, schedule: Q## X024 (oral), vehicle: steroid suspending solution
  survivor count: 5 of 8
dose: 1712.0 mg/kg/injection, schedule: Q## X008 (sc), vehicle: steroid suspending solution
  T/C: 132 % of control
dose: 2400.0 mg/kg/injection, schedule: Q## X008 (oral), vehicle: steroid suspending solution
  survivor count: 2 of 8
dose: 2400.0 mg/kg/injection, schedule: Q## X024 (oral), vehicle: steroid suspending solution
  survivor count: 0 of 8
dose: 4800.0 mg/kg/injection, schedule: Q## X008 (oral), vehicle: steroid suspending solution
  survivor count: 0 of 8
dose: 4800.0 mg/kg/injection, schedule: Q## X024 (oral), vehicle: steroid suspending solution
  survivor count: 0 of 8

## CN(C)c1nc(N(C)C)nc(N(C)C)n1
dose: 100.0 mg/kg/injection, schedule: Q01DX009 (ip), vehicle: olive oil, sesame oil, peanut oil
  survivor count: 3 of 6
dose: 200.0 mg/kg/injection, schedule: Q01DX009 (ip), vehicle: olive oil, sesame oil, peanut oil
  survivor count: 5 of 6
dose: 400.0 mg/kg/injection, schedule: Q01DX009 (ip), vehicle: olive oil, sesame oil, peanut oil
  survivor count: 0 of 6
dose: 800.0 mg/kg/injection, schedule: Q01DX009 (ip), vehicle: olive oil, sesame oil, peanut oil
  survivor count: 0 of 6
dose: 800.0 mg/kg/injection, schedule: Q01DX009 (ip), vehicle: other
  T/C: 136 % of control
dose: 1200.0 mg/kg/injection, schedule: Q01DX009 (ip), vehicle: olive oil, sesame oil, peanut oil
  survivor count: 0 of 6
dose: 1600.0 mg/kg/injection, schedule: Q01DX009 (ip), vehicle: olive oil, sesame oil, peanut oil
  survivor count: 0 of 6

## COc1ccc2c(c1)C(C)=CC(C)(C)N2
dose: 100.0 mg/kg/injection, schedule: Q01DX028 (sc), vehicle: steroid suspending solution
  T/C: 132 % of control

— PubChem BioAssay AID344 (DTP/NCI, 2004)
